Here are results for two substances from publication PMC4769547.

The chains behind the UniProt entries cited, without tags or fusion partners. Where a name states a change or a piece, a line headed by the entry shows the natural chain unless it says otherwise.
UniProt P23771: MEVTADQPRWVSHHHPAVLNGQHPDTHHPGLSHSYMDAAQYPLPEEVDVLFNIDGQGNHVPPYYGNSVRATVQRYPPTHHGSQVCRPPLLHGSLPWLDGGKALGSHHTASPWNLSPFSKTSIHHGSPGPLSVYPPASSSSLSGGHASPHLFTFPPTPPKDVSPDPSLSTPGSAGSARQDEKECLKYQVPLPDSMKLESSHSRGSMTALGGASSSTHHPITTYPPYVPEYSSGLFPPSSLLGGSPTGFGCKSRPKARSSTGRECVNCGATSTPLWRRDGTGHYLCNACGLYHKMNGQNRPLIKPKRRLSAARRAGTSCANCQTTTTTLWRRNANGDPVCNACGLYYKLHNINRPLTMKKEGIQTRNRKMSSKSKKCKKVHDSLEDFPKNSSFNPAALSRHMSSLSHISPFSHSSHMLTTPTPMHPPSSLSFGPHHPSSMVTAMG
UniProt P51532: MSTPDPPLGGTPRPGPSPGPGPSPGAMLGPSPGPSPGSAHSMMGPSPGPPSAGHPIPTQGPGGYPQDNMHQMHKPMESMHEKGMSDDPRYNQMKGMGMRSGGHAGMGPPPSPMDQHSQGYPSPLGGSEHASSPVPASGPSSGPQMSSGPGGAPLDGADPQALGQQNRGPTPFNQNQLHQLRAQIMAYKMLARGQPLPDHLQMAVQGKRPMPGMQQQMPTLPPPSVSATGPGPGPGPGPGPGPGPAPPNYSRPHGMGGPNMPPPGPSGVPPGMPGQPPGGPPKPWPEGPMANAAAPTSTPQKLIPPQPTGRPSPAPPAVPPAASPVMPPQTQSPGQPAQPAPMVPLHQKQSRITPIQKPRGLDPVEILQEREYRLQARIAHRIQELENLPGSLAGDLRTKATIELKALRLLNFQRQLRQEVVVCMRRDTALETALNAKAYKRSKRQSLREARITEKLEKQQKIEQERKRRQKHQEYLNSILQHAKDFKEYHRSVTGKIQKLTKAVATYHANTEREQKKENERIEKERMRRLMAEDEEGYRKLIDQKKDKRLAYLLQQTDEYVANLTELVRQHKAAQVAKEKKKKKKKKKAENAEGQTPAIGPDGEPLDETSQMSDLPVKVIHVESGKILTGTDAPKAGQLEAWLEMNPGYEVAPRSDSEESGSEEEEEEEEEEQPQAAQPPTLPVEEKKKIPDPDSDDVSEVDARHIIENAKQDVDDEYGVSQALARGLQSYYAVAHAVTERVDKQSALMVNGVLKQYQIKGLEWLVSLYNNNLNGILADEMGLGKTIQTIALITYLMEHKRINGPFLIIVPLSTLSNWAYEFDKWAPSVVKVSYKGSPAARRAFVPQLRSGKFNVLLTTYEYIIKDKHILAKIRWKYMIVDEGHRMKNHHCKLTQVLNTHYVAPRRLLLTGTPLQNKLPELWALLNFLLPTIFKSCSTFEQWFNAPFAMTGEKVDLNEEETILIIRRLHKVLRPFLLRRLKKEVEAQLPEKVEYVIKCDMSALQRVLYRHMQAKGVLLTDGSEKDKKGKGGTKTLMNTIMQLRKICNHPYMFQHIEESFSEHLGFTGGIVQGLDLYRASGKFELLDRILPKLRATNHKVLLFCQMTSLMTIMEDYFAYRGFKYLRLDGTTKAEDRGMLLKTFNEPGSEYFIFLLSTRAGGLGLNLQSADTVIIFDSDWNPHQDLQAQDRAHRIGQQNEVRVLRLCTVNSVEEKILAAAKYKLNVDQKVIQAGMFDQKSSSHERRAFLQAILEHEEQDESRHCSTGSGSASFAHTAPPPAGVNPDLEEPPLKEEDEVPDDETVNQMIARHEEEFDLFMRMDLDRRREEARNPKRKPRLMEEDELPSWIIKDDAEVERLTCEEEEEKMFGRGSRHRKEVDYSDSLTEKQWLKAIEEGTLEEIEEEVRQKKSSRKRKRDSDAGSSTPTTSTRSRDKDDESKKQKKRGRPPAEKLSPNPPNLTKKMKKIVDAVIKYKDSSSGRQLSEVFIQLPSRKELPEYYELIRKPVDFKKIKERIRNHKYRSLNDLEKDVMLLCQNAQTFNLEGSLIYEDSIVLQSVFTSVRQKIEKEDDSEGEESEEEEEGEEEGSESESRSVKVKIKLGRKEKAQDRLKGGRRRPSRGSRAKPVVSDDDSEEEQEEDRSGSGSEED

The target in assay [1] is GATA3 (endogenous, T47D) (human (endogenous in T47D)) (UniProt P23771). The assay is described as follows: co-IP; endogenous GATA3 immunoprecipitated from T47D nuclear extracts with GATA3 antibody; immunoblots. A general note: Immunoblotting shows a protein as a band on a membrane.
The target of assay [2] is Ty1-GATA3 (wild-type GATA3) (human) (UniProt P23771). Put plainly: co-IP; Ty1-GATA3 immunoprecipitated from MDA-MB-231 nuclear extracts with Ty1 antibody; immunoblots.

These are yes or no findings as the source states them, for the method shown. Binding seen in cells or lysates may run through a third protein. Some results given as binding are weak or reduced against the parent protein; the word gives no strength.

With “BRG1 (endogenous, T47D) (from UniProt P51532 1-1647)”, the binding entry in assay [1] is “binds”.

Turning to BRG1 (from UniProt P51532 1-1647), the binding result in assay [2] is “binds”.
